USRE47103 (AGENSYS, dated 2018)
These are yes or no findings as the source states them, for the method shown. Some entries that bind do so weakly or less than the wild type.

Columns and labels:
[1] = molecular target: T1, recombinant 158P1D7 protein (human) (UniProt Q9H5Y7); assay: ELISA on 158P1D7 recombinant protein
T1 sequence: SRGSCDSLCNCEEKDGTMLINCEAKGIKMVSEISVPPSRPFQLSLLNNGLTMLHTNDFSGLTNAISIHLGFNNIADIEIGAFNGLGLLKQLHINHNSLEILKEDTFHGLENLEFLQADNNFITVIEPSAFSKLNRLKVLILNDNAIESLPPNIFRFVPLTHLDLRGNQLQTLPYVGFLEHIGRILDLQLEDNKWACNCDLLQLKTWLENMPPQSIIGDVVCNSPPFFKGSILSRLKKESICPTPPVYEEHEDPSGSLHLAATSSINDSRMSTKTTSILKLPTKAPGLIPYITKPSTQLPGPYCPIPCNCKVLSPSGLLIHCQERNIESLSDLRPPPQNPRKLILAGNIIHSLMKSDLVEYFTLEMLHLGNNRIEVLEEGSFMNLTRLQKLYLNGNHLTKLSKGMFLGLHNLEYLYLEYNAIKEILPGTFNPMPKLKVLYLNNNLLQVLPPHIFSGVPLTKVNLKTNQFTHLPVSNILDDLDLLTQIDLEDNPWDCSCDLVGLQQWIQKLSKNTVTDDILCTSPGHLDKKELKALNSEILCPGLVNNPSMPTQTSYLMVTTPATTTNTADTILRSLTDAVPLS

[2] = molecular target: T1, recombinant 158P1D7 protein (human); assay: ELISA on recombinant 158P1D7 protein

- binding [1]: binds
- binding [2]: binds
B1: 158P1D7 MAb Ha15-10ac12 (antibody, human IgG2, kappa, V domains shown)
VH: QVQLVESGGGVVQPGRSLRLSCAASGFTFSSYGMHWVRQAPGKGLEWVAVIWYDGSNQYYADSVKGRFTISRDNSKNTLFLQMHSLRAEDTAVYYCARGLTSGRYGMDVWGQGTTVTVSS
VL: DIVMTQSPLSLPVTPGEPASISCRSSQSLLLSHGFNYLDWYLQKPGQSPQLLIYLGSSRASGVPDRFSGSGSGTDFTLKISRVEAEDVGLYYCMQPLQIPWTFGQGTKVEIKR
notes: Fully human IgG2 kappa antibody from XenoMouse; It was tested both as material purified from the hybridoma and as recombinant material from CHO-K1SV cells; also called Ha15-10ac12 MAb
